PubChem BioAssay AID1259425, University of Nebraska Medical Center – 2018
The whole screen tested about 14,000 reagents; this is an unselected part. Not all columns of the deposit are shown. The record does not give: the time to read-out.

Screen: 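Compare each knockdown with KSR1 silencing using changes in marker transcripts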 (primary screen)
System: HCT116 human colon cancer cells
Reagents: siRNA pool against human genes, 50 nM siRNA
Measurement: 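After 50 nM siRNA pool, branched-DNA assay measures six marker transcripts per well, minus blank, normalised to the geometric mean of two housekeeping transcripts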
Scale: BNIP3L mRNA: higher = more BNIP3L transcript after knockdown

Depletion of FZD2 resulted in: BNIP3L mRNA, set 1 = 0.132.
UGT2B11 gave BNIP3L mRNA, set 1 = 0.0502.
Depletion of OLFM4 came out at: BNIP3L mRNA, set 1 = 0.143.
With knock-down of AGTRAP the results were BNIP3L mRNA, set 1 = 0.155.
AUNIP gave BNIP3L mRNA, set 1 = 0.0427.
Depletion of UBE2B resulted in: BNIP3L mRNA, set 1 = 0.0781.
For CD1E, the values are BNIP3L mRNA, set 1 = 0.0455.
Knock-down of TERF1 gave: BNIP3L mRNA, set 1 = 0.0735.
Against CTDSP2, the entry reads BNIP3L mRNA, set 1 = 0.127.
Depletion of POLR2C resulted in: BNIP3L mRNA, set 1 = 0.223.
With knock-down of SOCS2, the record shows BNIP3L mRNA, set 1 = 0.182.
After knock-down of WDR5B the results were BNIP3L mRNA, set 1 = 0.18.
Knock-down of PDLIM4 came out at: BNIP3L mRNA, set 1 = 0.0872.
CLCN3 scored BNIP3L mRNA, set 1 = 0.0844.
With knock-down of CXCL8, the screen gave BNIP3L mRNA, set 1 = 0.126.
INS scored BNIP3L mRNA, set 1 = 0.0672.
With knock-down of PCDHA1 the results were BNIP3L mRNA, set 1 = 0.141.
LILRP2 scored BNIP3L mRNA, set 1 = 0.0868.
RASSF5 scored BNIP3L mRNA, set 1 = 0.131.

Reformatted: results already given.
| Target gene | BNIP3L mRNA, set 1 |
| --- | --- |
| WDR5B | 0.18 |
| PDLIM4 | 0.0872 |
| CLCN3 | 0.0844 |
